# Assay results from PubChem BioAssay AID504834 (National Center for Advancing Translational Sciences (NCATS), 2011).
# Among all 320,000 compounds or so, about 22,000 (6.9%) were called active. The shares of active, inactive and inconclusive entries below differ from those in the screen. The call rests on the fitted dose curve; in most records, active means well fitted inhibition curve with a large enough effect; inconclusive means small, poorly fitted or top-dose-only effect, or another doubt; inactive means no such curve, though single readings can be large or run the other way. Potencies beside an inconclusive call are fits to weak or partial responses and may not hold up.
# Test: Primary qHTS for delayed death inhibitors of the malarial parasite plastid, 96 hour incubation
# Details: P. falciparum luciferase reporter growth; series mostly up to 28.7 µM
# Method in brief: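 Compounds incubated with erythrocytes infected by luciferase-expressing P. falciparum (2% hematocrit, 0.05% parasitemia final) for 96 hours, 37 C in 5% CO2. Growth inhibition scored as decreased luciferase luminescence.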
# On the % scale 0 is the no-effect control and ±100 the full control effect; potency means the concentration at half of the fitted maximal effect.
SMILES,Potency,"activity change, negative = inhibition"
COc1ccc(CNC(=O)C2CC(c3cc(C(F)(F)F)cc(C(F)(F)F)c3)=NO2)cc1 (configuration not stated),inactive,
COc1ccc(-c2nc(CC(=O)O)cs2)cc1,inactive,
CCOc1ccc(C(C)(C)C)cc1S(=O)(=O)Nc1ccncc1,inactive,
COc1cc(/C=C/c2nc3ccccc3c(=O)[nH]2)cc(Cl)c1O,"inconclusive: 2.33 µM [inhibitor, full curve, poor fit]",
CCC1c2ccc(C)n2CCN1C(=O)Nc1ccccc1OC (configuration not stated),inactive,
Cc1c(C)n2c(SCC(=O)N3CCCC3)nnc2[nH]c1=O,inactive,
CC1(C)Cc2c(C#N)c(SCC(=O)c3ccccc3)nc(N3CCOCC3)c2CO1,"inconclusive: 11.7 µM [inhibitor, single point]",
CC(C)(C)OC(=O)[C@H](Cc1ccccc1)NC(=O)c1nc[nH]c1C(=O)NC1CCNCC1,"inconclusive: 18.5 µM [inhibitor, single point]",
Fc1cccc(/C=N/Nc2cc(N3CCOCC3)ncn2)c1,active: 2.33 µM,
Cc1ccc(-n2c3nc(=O)n(C)c(=O)c-3cc3ccccc32)cc1,inactive,
Cn1c(=O)n(C)c2cc(CN3C(=O)OC(C)(C)C3(C)O)ccc21 (configuration not stated),"inconclusive: 5.22 µM [inhibitor, partial curve]",
Cc1cccc(Nc2nc(NCCCN3CCOCC3)nc(N)c2[N+](=O)[O-])c1,"inconclusive: 13.1 µM [inhibitor, partial curve, poor fit]",
O=C(CCN1CCN(c2ccccc2F)CC1)Nc1ccccc1Cl,"inconclusive: 3.29 µM [inhibitor, full curve]",
Cc1cc(C(F)(F)F)n2nc(-c3cccs3)cc2n1,inactive,
C=CCN1C(=O)c2ccc(C(=O)OCC(=O)N3CCN(c4ccccc4)CC3)cc2C1=O,inactive,
CCCn1c(=O)c(C(=O)NCc2ccc3c(c2)OCO3)c(O)c2ccccc21,"inconclusive: 2.08 µM [inhibitor, full curve]",
CCOC(=O)C1CCN(C(=O)CCC(=O)NNc2nc3ccccc3c3nc(C)nn23)CC1,"inconclusive: 20.8 µM [inhibitor, single point]",
CN(CCOc1ccccc1)C(=O)CNC(=O)c1ccc(C(C)(C)C)cc1,"inconclusive: 8.28 µM [inhibitor, partial curve, poor fit]",
CSc1nc(-c2ccc(F)cc2)cc(=O)[nH]1,"inconclusive: 11.7 µM [inhibitor, partial curve, poor fit]",
CCCC(=O)NC(=S)Nc1sc2c(c1C(N)=O)CCC2,inactive,
CCCCCCn1c(N2CCN(c3ccccc3)CC2)nc2c1c(=O)[nH]c(=O)n2C,active: 14.7 µM,
CCN(CC)c1ccc(NC(=O)c2ccc3c(c2)OCO3)cc1,"inconclusive: 18.5 µM [inhibitor, single point]",
Cc1cccc(/N=C/c2c(O)[nH]c3ccccc23)n1,"inconclusive: 0.0738 µM [inhibitor, full curve, poor fit]",
CCN(CC)CCN(CC(=O)Nc1c(C)cc(C)cc1C)C(=O)c1ccccc1,inactive,

# Gathered by group: the compounds so far with an NH in an aromatic ring (6)
SMILES,Potency,"activity change, negative = inhibition"
COc1cc(/C=C/c2nc3ccccc3c(=O)[nH]2)cc(Cl)c1O,"inconclusive: 2.33 µM [inhibitor, full curve, poor fit]",
Cc1c(C)n2c(SCC(=O)N3CCCC3)nnc2[nH]c1=O,inactive,
CC(C)(C)OC(=O)[C@H](Cc1ccccc1)NC(=O)c1nc[nH]c1C(=O)NC1CCNCC1,"inconclusive: 18.5 µM [inhibitor, single point]",
CSc1nc(-c2ccc(F)cc2)cc(=O)[nH]1,"inconclusive: 11.7 µM [inhibitor, partial curve, poor fit]",
CCCCCCn1c(N2CCN(c3ccccc3)CC2)nc2c1c(=O)[nH]c(=O)n2C,active: 14.7 µM,
Cc1cccc(/N=C/c2c(O)[nH]c3ccccc23)n1,"inconclusive: 0.0738 µM [inhibitor, full curve, poor fit]",

# Continued.

SMILES,Potency,"activity change, negative = inhibition"
COc1ccc(N=NC2=C(O)CC(C)(C)CC2=O)cc1,"inconclusive: 20.8 µM [inhibitor, partial curve, poor fit]",
CCOC(=O)/C(=C\c1ccc([N+](=O)[O-])o1)NC(=O)c1ccccc1,"inconclusive: 10.4 µM [inhibitor, single point]",
Cc1ccc(OCc2nc(-c3cccs3)no2)c([N+](=O)[O-])c1,"inconclusive: 18.5 µM [inhibitor, single point]",
Cn1c(=O)[nH]c(=O)c2c1nc(CN1CCN(c3ccc(F)cc3)CC1)n2CCCc1ccccc1,inactive,
COc1ccc(NC(=O)COC(=O)c2ccc(N3CCCC3=O)cc2)cc1,inactive,
Cc1ccc(CSc2ncnc3c2cnn3-c2ccccc2)cc1,inactive,
Cc1cc(NC(=O)c2cc(S(=O)(=O)N3CCCCC3)ccc2C)n(-c2ccccn2)n1,"inconclusive: 3.29 µM [inhibitor, single point]",
CCc1ccc(CNC(=O)C2CCN(S(=O)(=O)N3CC(C)CC(C)C3)CC2)cc1 (configuration not stated),inactive,
CS(=O)(=O)N(CC(=O)Nc1ccc2c(c1)OCO2)Cc1ccccc1,inactive,
Cc1ccc(C(=O)OCC(=O)Nc2ccc3c(c2)OCO3)c(O)c1,inactive,
Cc1cccc(C)c1NC(=S)NC(C)CCc1ccccc1 (configuration not stated),"inconclusive: 10.4 µM [inhibitor, single point]",
Cc1ccc(-c2cc(C(=O)O)n[nH]2)o1,"inconclusive: 3.7 µM [inhibitor, partial curve]",
CCN(CC)CCn1c2ccccc2c2nc3ccc([N+](=O)[O-])cc3cc21,"inconclusive: 1.47 µM [inhibitor, full curve]",
O=C(c1ccco1)N1CCN(C(=O)C2CC(=O)N(c3ccc(Cl)cc3)C2)CC1 (configuration not stated),"inconclusive: 0.0026 µM [inhibitor, full curve, poor fit]",
Cc1c(Br)c(C(F)(F)F)nn1CC(=O)NCCCn1ccnc1,inactive,
CCCCc1nc2cc(C(=O)N3CCNC(=O)C3CC(=O)OC)ccc2o1 (configuration not stated),"inconclusive: 0.0033 µM [inhibitor, full curve, poor fit]",
O=C(CCl)NC(=O)NC12CC3CC(CC(C3)C1)C2,"inconclusive: 3.29 µM [inhibitor, partial curve, poor fit]",
O=c1[nH]c(Cc2ccccn2)nc2scc(-c3ccccc3Cl)c12,"inconclusive: 11.7 µM [inhibitor, single point]",
CCCN(CC(=O)c1cc(C)n(C)c1C)S(=O)(=O)c1cccc(C(F)(F)F)c1,,inactive: 2.16% [at 5.75 µM]
CCN(CC)S(=O)(=O)c1ccc(N2CCCC2)c(NC(=O)c2ccc(N3CCCC3=O)cc2)c1,active: 11.7 µM,
COc1cc2c(cc1O)CCN(C(=O)c1ccco1)C2C (configuration not stated),inactive,
O=C(NNC(=O)C1CCCN(S(=O)(=O)c2ccc3ccccc3c2)C1)C1CC1 (configuration not stated),inactive,
CN(CC(=O)Nc1ccc(F)cc1)C(=O)c1ccncc1,"inconclusive: 18.5 µM [inhibitor, single point]",

# Laid out differently: 2 of the compounds above.
SMILES	Potency	activity change, negative = inhibition
COc1ccc(CNC(=O)C2CC(c3cc(C(F)(F)F)cc(C(F)(F)F)c3)=NO2)cc1 (configuration not stated)	inactive	
COc1ccc(-c2nc(CC(=O)O)cs2)cc1	inactive	
